This is one part of the list. Single values are uncertain, as repeats are few or missing.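 Imaging used 1,536-well plates; nuclei positive for cleaved PARP by antibody were divided by total DNA-stained nuclei to yield the apoptosis fraction. Doses for screening kept most cells viable, and cell lines differ markedly in resting and induced cleaved-PARP levels.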
Columns and labels:
Experiment in all cases: cleaved PARP positive nuclei fraction relative to DMSO control; melanoma cells; higher = more apoptosis
Conditions in all cases: library dose: low library concentration; 72 h
501Mel = test system: 501Mel
A101D = test system: A101D
A2058 = test system: A2058
A375 = test system: A375
C32 = test system: C32
CBRC008 = test system: CBRC008 (line from a melanoma biopsy)
CBRC014 = test system: CBRC014 (line from a melanoma biopsy)
CBRC016 = test system: CBRC016 (line from a melanoma biopsy)
CBRC017 = test system: CBRC017 (line from a melanoma biopsy)

Structure (SMILES)	cleaved PARP positive nuclei fraction (501Mel)	cleaved PARP positive nuclei fraction (A101D)	cleaved PARP positive nuclei fraction (A2058)	cleaved PARP positive nuclei fraction (A375)	cleaved PARP positive nuclei fraction (C32)	cleaved PARP positive nuclei fraction (CBRC008)	cleaved PARP positive nuclei fraction (CBRC014)	cleaved PARP positive nuclei fraction (CBRC016)	cleaved PARP positive nuclei fraction (CBRC017)
NC(=O)c1ccc(N(C(N)=O)c2c(F)cccc2F)nc1-c1ccc(F)cc1F + CNC(=O)c1cc(Oc2ccc(NC(=O)Nc3ccc(Cl)c(C(F)(F)F)c3)cc2)ccn1 [sorafenib] (first compound 0.4 µM, partner dose 0.4 µM)	71.7%	45.1%	114%	243%	78.6%	142%	188%	41.9%	124%
CC(=O)O[C@@]12CO[C@@H]1C[C@H](O)[C@@]1(C)C(=O)[C@H](O)C3=C(C)[C@@H](OC(=O)[C@H](O)[C@@H](NC(=O)OC(C)(C)C)c4ccccc4)C[C@@](O)([C@@H](OC(=O)c4ccccc4)[C@H]21)C3(C)C [Docetaxel] + O=C(O)[C@@H]1[O][Sb](=[O])([O][Sb]2(=[O])[O][C@H]([C@H](O)CO)[C@H](O)[C@H](C(=O)O)[O]2)[O][C@H]([C@H](O)CO)[C@@H]1O [stibogluconate] (first compound 0.0001 µM, partner dose 2 µM)	275%	137%	4190%	1670%	178%	414%	137%	226%	233%
C[C@]1(O)C[C@@H](c2nc(-c3ccc4ccc(-c5ccccc5)nc4c3)c3c(N)nccn32)C1 + Cn1nnc2c(C(N)=O)ncn2c1=O [temozolomide] (first compound 0.4 µM, partner dose 2 µM)	105%	62%	126%	367%	321%	54.2%	219%	34.1%	124%
CC1(C)CCC(c2ccc(Cl)cc2)=C(CN2CCN(c3ccc(C(=O)NS(=O)(=O)c4ccc(N[C@H](CCN5CCOCC5)CSc5ccccc5)c(S(=O)(=O)C(F)(F)F)c4)cc3)CC2)C1 + CN1CCN(c2ccc3nc(-c4c(N)c5c(F)cccc5[nH]c4=O)[nH]c3c2)CC1 [Dovitinib] (first compound 0.4 µM, partner dose 0.1 µM)	173%	285%	255%	272%	244%	529%	785%	824%	218%
Cn1cnc2c(F)c(Nc3ccc(Br)cc3Cl)c(C(=O)NOCCO)cc21 [selumetinib] + CNC(=O)c1cc(Oc2ccc(NC(=O)Nc3ccc(Cl)c(C(F)(F)F)c3)cc2)ccn1 [sorafenib] (first compound 0.015 µM, partner dose 0.4 µM)	108%	152%	94.6%	188%	44%	72.6%	78%	146%	85.7%
CC(=O)O[C@@]12CO[C@@H]1C[C@H](O)[C@@]1(C)C(=O)[C@H](O)C3=C(C)[C@@H](OC(=O)[C@H](O)[C@@H](NC(=O)OC(C)(C)C)c4ccccc4)C[C@@](O)([C@@H](OC(=O)c4ccccc4)[C@H]21)C3(C)C [Docetaxel] + CS(=O)(=O)CCNCc1ccc(-c2ccc3ncnc(Nc4ccc(OCc5cccc(F)c5)c(Cl)c4)c3c2)o1 [lapatinib] (first compound 0.0001 µM, partner dose 0.8 µM)	209%	59.8%	2850%	3500%		351%	296%	292%	159%
CN(c1ncccc1CNc1nc(Nc2ccc3c(c2)CC(=O)N3)ncc1C(F)(F)F)S(C)(=O)=O + CN1CCN(c2ccc3nc(-c4c(N)c5c(F)cccc5[nH]c4=O)[nH]c3c2)CC1 [Dovitinib] (first compound 0.08 µM, partner dose 0.1 µM)	144%	95.5%	131%	118%	93.2%	75.9%	113%	99.9%	82.4%
CS(=O)(=O)c1ccc(C(=O)Nc2ccc(Cl)c(-c3ccccn3)c2)c(Cl)c1 [vismodegib] + COCC[n+]1c2c(n(Cc3cnccn3)c1C)C(=O)c1ccccc1C2=O [YM155] (first compound 1 µM, partner dose 0.0004 µM)	78.1%	171%	37%	206%	101%	75.9%	102%	28.3%	96.7%
CCN(CC)CCNC(=O)c1c(C)[nH]c(/C=C2\C(=O)Nc3ccc(F)cc32)c1C [sunitinib] + CC(C)C[C@H](NC(=O)[C@H](Cc1ccccc1)NC(=O)c1cnccn1)B(O)O [Bortezomib] (first compound 0.4 µM, partner dose 0.001 µM)	770%	74%	76.5%	152%	78.8%	178%	146%	145%	104%
NC(=O)c1ccc(N(C(N)=O)c2c(F)cccc2F)nc1-c1ccc(F)cc1F + CC(C)C[C@H](NC(=O)[C@H](Cc1ccccc1)NC(=O)c1cnccn1)B(O)O [Bortezomib] (first compound 0.4 µM, partner dose 0.001 µM)	224%	523%	29.4%	43.7%	69.2%	275%	138%	472%	244%
Cn1cnc2c(F)c(Nc3ccc(Br)cc3Cl)c(C(=O)NOCCO)cc21 [selumetinib] + C#Cc1cccc(Nc2ncnc3cc(OCCOC)c(OCCOC)cc23)c1 [erlotinib] (first compound 0.015 µM, partner dose 0.8 µM)	2530%	276%	150%	108%	82.5%	191%	99.2%	82.7%	185%
COc1ccc(C2=N[C@@H](c3ccc(Cl)cc3)[C@@H](c3ccc(Cl)cc3)N2C(=O)N2CCNC(=O)C2)c(OC(C)C)c1 [Nutlin-3] + C=CCNC1=C2C[C@@H](C)C[C@H](OC)[C@H](O)[C@@H](C)/C=C(\C)[C@H](OC(N)=O)[C@@H](OC)/C=C\C=C(/C)C(=O)NC(=CC1=O)C2=O [Tanespimycin] (first compound 0.1 µM, partner dose 0.002 µM)	89.2%	199%	94.6%	170%	89.4%	50.8%	123%	55.8%	134%
C[C@@H](N)c1ccc(C(=O)Nc2ccnc3[nH]ccc23)cc1 + CCCS(=O)(=O)Nc1ccc(F)c(C(=O)c2c[nH]c3ncc(Cl)cc23)c1F [PLX4720] (first compound 0.4 µM, partner dose 0.08 µM)	199%	104%	143%	99%	205%	36.7%	113%	259%	90.1%
Cn1cnc2c(F)c(Nc3ccc(Br)cc3Cl)c(C(=O)NOCCO)cc21 [selumetinib] + COc1ccc(C2=N[C@@H](c3ccc(Cl)cc3)[C@@H](c3ccc(Cl)cc3)N2C(=O)N2CCNC(=O)C2)c(OC(C)C)c1 [Nutlin-3] (first compound 0.015 µM, partner dose 0.1 µM)	636%	221%	203%	196%	76.3%	85.6%	84.3%	101%	118%
C[C@]1(O)C[C@@H](c2nc(-c3ccc4ccc(-c5ccccc5)nc4c3)c3c(N)nccn32)C1 + CS(=O)(=O)c1ccc(C(=O)Nc2ccc(Cl)c(-c3ccccn3)c2)c(Cl)c1 [vismodegib] (first compound 0.4 µM, partner dose 1 µM)	78.8%	182%	79%	252%	71.8%	79.5%	118%	36.5%	121%
NC1(c2ccc(-c3nc4ccn5c(=O)[nH]nc5c4cc3-c3ccccc3)cc2)CCC1 + OCc1c[nH]c2ccccc12 [Indole-3-carbinol] (first compound 0.4 µM, partner dose 0.8 µM)	92%	69.6%	186%	122%	85.2%	320%	81.6%	102%	70.5%
C[C@@H](N)c1ccc(C(=O)Nc2ccnc3[nH]ccc23)cc1 + Nc1ncn([C@H]2C[C@H](O)[C@@H](CO)O2)c(=O)n1 [decitabine] (first compound 0.4 µM, partner dose 0.1 µM)	190%	113%	224%	180%	84.7%	34.5%	102%	368%	77.3%
CC(=O)O[C@@]12CO[C@@H]1C[C@H](O)[C@@]1(C)C(=O)[C@H](O)C3=C(C)[C@@H](OC(=O)[C@H](O)[C@@H](NC(=O)OC(C)(C)C)c4ccccc4)C[C@@](O)([C@@H](OC(=O)c4ccccc4)[C@H]21)C3(C)C [Docetaxel] + Cn1c(=O)n(-c2ccc(C(C)(C)C#N)cc2)c2c3cc(-c4cnc5ccccc5c4)ccc3ncc21 [NVP-BEZ235] (first compound 0.0001 µM, partner dose 0.004 µM)	365%	153%	343%	1290%	106%	328%	151%	134%	233%
CC(=O)O[C@@]12CO[C@@H]1C[C@H](O)[C@@]1(C)C(=O)[C@H](O)C3=C(C)[C@@H](OC(=O)[C@H](O)[C@@H](NC(=O)OC(C)(C)C)c4ccccc4)C[C@@](O)([C@@H](OC(=O)c4ccccc4)[C@H]21)C3(C)C [Docetaxel] + Nc1cccc2c1CN(C1CCC(=O)NC1=O)C2=O [lenalidomide] (first compound 0.0001 µM, partner dose 1 µM)	210%	217%	2210%	2680%	79.9%	350%	120%	324%	152%
CC(=O)O[C@@]12CO[C@@H]1C[C@H](O)[C@@]1(C)C(=O)[C@H](O)C3=C(C)[C@@H](OC(=O)[C@H](O)[C@@H](NC(=O)OC(C)(C)C)c4ccccc4)C[C@@](O)([C@@H](OC(=O)c4ccccc4)[C@H]21)C3(C)C [Docetaxel] + CC(C)CCN1c2nc(Nc3cc(F)c(O)c(F)c3)ncc2N(C)C(=O)C1C [BID1870] (first compound 0.0001 µM, partner dose 0.2 µM)	105%	15.4%	3600%		390%	645%	255%	82.3%	355%
Cn1sc(=O)n(Cc2ccccc2)c1=O + CC(=O)c1c(C)c2cnc(Nc3ccc(N4CCNCC4)cn3)nc2n(C2CCCC2)c1=O [palbociclib] (first compound 0.4 µM, partner dose 0.04 µM)	135%	166%	137%	81%	81.4%	49%	114%	73.7%	114%

Part of the list above, with bars between the fields:
Structure (SMILES) | cleaved PARP positive nuclei fraction (501Mel) | cleaved PARP positive nuclei fraction (A101D) | cleaved PARP positive nuclei fraction (A2058) | cleaved PARP positive nuclei fraction (A375) | cleaved PARP positive nuclei fraction (C32) | cleaved PARP positive nuclei fraction (CBRC008) | cleaved PARP positive nuclei fraction (CBRC014) | cleaved PARP positive nuclei fraction (CBRC016) | cleaved PARP positive nuclei fraction (CBRC017)
CC(=O)O[C@@]12CO[C@@H]1C[C@H](O)[C@@]1(C)C(=O)[C@H](O)C3=C(C)[C@@H](OC(=O)[C@H](O)[C@@H](NC(=O)OC(C)(C)C)c4ccccc4)C[C@@](O)([C@@H](OC(=O)c4ccccc4)[C@H]21)C3(C)C [Docetaxel] + O=C(O)[C@@H]1[O][Sb](=[O])([O][Sb]2(=[O])[O][C@H]([C@H](O)CO)[C@H](O)[C@H](C(=O)O)[O]2)[O][C@H]([C@H](O)CO)[C@@H]1O [stibogluconate] (first compound 0.0001 µM, partner dose 2 µM) | 275% | 137% | 4190% | 1670% | 178% | 414% | 137% | 226% | 233%
Cn1sc(=O)n(Cc2ccccc2)c1=O + CC(=O)c1c(C)c2cnc(Nc3ccc(N4CCNCC4)cn3)nc2n(C2CCCC2)c1=O [palbociclib] (first compound 0.4 µM, partner dose 0.04 µM) | 135% | 166% | 137% | 81% | 81.4% | 49% | 114% | 73.7% | 114%

From the supplement of paper PMC4604168 (melanoma cell lines)
